# Legend:
# fibrotic rat liver = assay: In vivo 13C-chemical shift imaging of fibrotic rat liver (CCl4 induced); set-up: species or system Wistar rat; conditions: for 13C-malate signal detection in fibrotic rat liver: CCl4 over 40 days, 2 ml of about 50 mM imaging medium
# normal rat liver = assay: In vivo 13C-chemical shift imaging of normal rat liver; set-up: species or system Wistar rat; conditions: 2 ml of about 50 mM imaging medium, imaging 15 s after start of injection
smiles,measurement,setting,value
[2H]/C(C(=O)[O-])=C(/[2H])[13C](=O)[O-].[Na+].[Na+] [sodium ^13C1-fumarate-d2],13C-malate signal detection in fibrotic rat liver,fibrotic rat liver,both the ^13C-fumarate and ^13C-malate signal could be detected
same,13C-malate signal detection in fibrotic rat liver,fibrotic rat liver; listed as 13C1-fumarate-d2,could be detected
same,13C-malate signal of fibrotic rat liver compared to normal rat liver,"fibrotic rat liver; metabolic profile, compared to Example 8",significantly higher
same,13C-malate signal detection in normal rat liver,normal rat liver,Only the ^13C-fumarate signal could be detected
same,13C-malate signal detection in normal rat liver,normal rat liver; listed as 13C1-fumarate-d2,too low to detect
